In patent US9134318B2, “Detection of oxidized polypeptides” (Purdue Research Foundation, priority 2009, dated 2015):

Test system: carbonylated plasma proteins
Test: iTRAQ and MALDI/TOF/TOF quantitative comparison of avidin-selected carbonylated proteins, breast cancer patients vs controls (Table 8)
Design: species or system Homo sapiens
Details: avidin-selected carbonylated protein in plasma, breast cancer patient vs matched control, iTRAQ; repeated lines of a protein = different donors; negative = lower in cancer

B1: Kininogen-1 precursor (protein, UniProt P01042 1-644, looked up)
chain: MKLITILFLCSRLLLSLTQESQSEEIDCNDKDLFKAVDAALKKYNSQNQSNNQFVLYRITEATKTVGSDTFYSFKYEIKEGDCPVQSGKTWQDCEYKDAAKAATGECTATVGKRSSTKFSVATQTCQITPAEGPVVTAQYDCLGCVHPISTQSPDLEPILRHGIQYFNNNTQHSSLFMLNEVKRAQRQVVAGLNFRITYSIVQTNCSKENFLFLTPDCKSLWNGDTGECTDNAYIDIQLRIASFSQNCDIYPGKDFVQPPTKICVGCPRDIPTNSPELEETLTHTITKLNAENNATFYFKIDNVKKARVQVVAGKKYFIDFVARETTCSKESNEELTESCETKKLGQSLDCNAEVYVVPWEKKIYPTVNCQPLGMISLMKRPPGFSPFRSSRIGEIKEETTVSPPHTSMAPAQDEERDSGKEQGHTRRHDWGHEKQRKHNLGHGHKHERDQGHGHQRGHGLGHGHEQQHGLGHGHKFKLDDDLEHQGGHVLDHGHKHKHGHGHGKHKNKGKKNGKHNGWKTEHLASSSEDSTTPSAQTQEKTEGPTPIPSLAKPGVTVTFSDFQDSDLIATMMPPISPAPIQSDDDWIPDIQIDPNGLSFNPISDFPDTTSPKCPGRPWKSVSEINPTTQMKESYYFDLTDGLS
modifications: full-length oxidized
**Q.** B1 was tested. Which “Breast cancer/control (fold change)” value did it give?
**A.** 1.9 fold change

B2: Katanin p80 WD40-containing subunit B1 (protein, UniProt Q9BVA0 1-655, looked up)
Katanin p80 WD40 …: MATPVVTKTAWKLQEIVAHASNVSSLVLGKASGRLLATGGDDCRVNLWSINKPNCIMSLTGHTSPVESVRLNTPEELIVAGSQSGSIRVWDLEAAKILRTLMGHKANICSLDFHPYGEFVASGSQDTNIKLWDIRRKGCVFRYRGHSQAVRCLRFSPDGKWLASAADDHTVKLWDLTAGKMMSEFPGHTGPVNVVEFHPNEYLLASGSSDRTIRFWDLEKFQVVSCIEGEPGPVRSVLFNPDGCCLYSGCQDSLRVYGWEPERCFDVVLVNWGKVADLAICNDQLIGVAFSQSNVSSYVVDLTRVTRTGTVARDPVQDHRPLAQPLPNPSAPLRRIYERPSTTCSKPQRVKQNSESERRSPSSEDDRDERESRAEIQNAEDYNEIFQPKNSISRTPPRRSEPFPAPPEDDAATAKEAAKPSPAMDVQFPVPNLEVLPRPPVVASTPAPKAEPAIIPATRNEPIGLKASDFLPAVKIPQQAELVDEDAMSQIRKGHDTMCVVLTSRHKNLDTVRAVWTMGDIKTSVDSAVAINDLSVVVDLLNIVNQKASLWKLDLCTTVLPQIEKLLQSKYESYVQTGCTSLKLILQRFLPLITDMLAAPPSVGVDISREERLHKCRLCYKQLKSISGLVKSKSGLSGRHGSTFRELHLLMASLD
**Q.** With B2 as the molecule, how does the “Breast cancer/control (fold change)” value read?
**A.** −3.4 fold change

B3: Kinesin-like motor protein C20orf23 (protein, UniProt Q96L93 1-1317, looked up)
Kinesin-like protein KIF16B: MASVKVAVRVRPMNRREKDLEAKFIIQMEKSKTTITNLKIPEGGTGDSGRERTKTFTYDFSFYSADTKSPDYVSQEMVFKTLGTDVVKSAFEGYNACVFAYGQTGSGKSYTMMGNSGDSGLIPRICEGLFSRINETTRWDEASFRTEVSYLEIYNERVRDLLRRKSSKTFNLRVREHPKEGPYVEDLSKHLVQNYGDVEELMDAGNINRTTAATGMNDVSSRSHAIFTIKFTQAKFDSEMPCETVSKIHLVDLAGSERADATGATGVRLKEGGNINKSLVTLGNVISALADLSQDAANTLAKKKQVFVPYRDSVLTWLLKDSLGGNSKTIMIATISPADVNYGETLSTLRYANRAKNIINKPTINEDANVKLIRELRAEIARLKTLLAQGNQIALLDSPTALSMEEKLQQNEARVQELTKEWTNKWNETQNILKEQTLALRKEGIGVVLDSELPHLIGIDDDLLSTGIILYHLKEGQTYVGRDDASTEQDIVLHGLDLESEHCIFENIGGTVTLIPLSGSQCSVNGVQIVEATHLNQGAVILLGRTNMFRFNHPKEAAKLREKRKSGLLSSFSLSMTDLSKSRENLSAVMLYNPGLEFERQQREELEKLESKRKLIEEMEEKQKSDKAELERMQQEVETQRKETEIVQLQIRKQEESLKRRSFHIENKLKDLLAEKEKFEEERLREQQEIELQKKRQEEETFLRVQEELQRLKELNNNEKAEKFQIFQELDQLQKEKDEQYAKLELEKKRLEEQEKEQVMLVAHLEEQLREKQEMIQLLRRGEVQWVEEEKRDLEGIRESLLRVKEARAGGDEDGEELEKAQLRFFEFKRRQLVKLVNLEKDLVQQKDILKKEVQEEQEILECLKCEHDKESRLLEKHDESVTDVTEVPQDFEKIKPVEYRLQYKERQLQYLLQNHLPTLLEEKQRAFEILDRGPLSLDNTLYQVEKEMEEKEEQLAQYQANANQLQKLQATFEFTANIARQEEKVRKKEKEILESREKQQREALERALARLERRHSALQRHSTLGMEIEEQRQKLASLNSGSREQSGLQASLEAEQEALEKDQERLEYEIQQLKQKIYEVDGVQKDHHGTLEGKVASSSLPVSAEKSHLVPLMDARINAYIEEEVQRRLQDLHRVISEGCSTSADTMKDNEKLHNGTIQRKLKYERMVSRSLGANPDDLKDPIKISIPRYVLCGQGKDAHFEFEVKITVLDETWTVFRRYSRFREMHKTLKLKYAELAALEFPPKKLFGNKDERVIAERRSHLEKYLRDFFSVMLQSATSPLHINKVGLTLSKHTICEFSPFFKKGVFDYSSHGTG
modifications: oxidized
**Q.** With B3 as the molecule, how does the “Breast cancer/control (fold change)” value read?
**A.** −2.3 fold change

B4: Laminin subunit gamma-2 precursor (protein, UniProt Q13753 22-1193, looked up)
Laminin subunit gamma-2: TSRREVCDCNGKSRQCIFDRELHRQTGNGFRCLNCNDNTDGIHCEKCKNGFYRHRERDRCLPCNCNSKGSLSARCDNSGRCSCKPGVTGARCDRCLPGFHMLTDAGCTQDQRLLDSKCDCDPAGIAGPCDAGRCVCKPAVTGERCDRCRSGYYNLDGGNPEGCTQCFCYGHSASCRSSAEYSVHKITSTFHQDVDGWKAVQRNGSPAKLQWSQRHQDVFSSAQRLDPVYFVAPAKFLGNQQVSYGQSLSFDYRVDRGGRHPSAHDVILEGAGLRITAPLMPLGKTLPCGLTKTYTFRLNEHPSNNWSPQLSYFEYRRLLRNLTALRIRATYGEYSTGYIDNVTLISARPVSGAPAPWVEQCICPVGYKGQFCQDCASGYKRDSARLGPFGTCIPCNCQGGGACDPDTGDCYSGDENPDIECADCPIGFYNDPHDPRSCKPCPCHNGFSCSVMPETEEVVCNNCPPGVTGARCELCADGYFGDPFGEHGPVRPCQPCQCNNNVDPSASGNCDRLTGRCLKCIHNTAGIYCDQCKAGYFGDPLAPNPADKCRACNCNPMGSEPVGCRSDGTCVCKPGFGGPNCEHGAFSCPACYNQVKIQMDQFMQQLQRMEALISKAQGGDGVVPDTELEGRMQQAEQALQDILRDAQISEGASRSLGLQLAKVRSQENSYQSRLDDLKMTVERVRALGSQYQNRVRDTHRLITQMQLSLAESEASLGNTNIPASDHYVGPNGFKSLAQEATRLAESHVESASNMEQLTRETEDYSKQALSLVRKALHEGVGSGSGSPDGAVVQGLVEKLEKTKSLAQQLTREATQAEIEADRSYQHSLRLLDSVSRLQGVSDQSFQVEEAKRIKQKADSLSSLVTRHMDEFKRTQKNLGNWKEEAQQLLQNGKSGREKSDQLLSRANLAKSRAQEALSMGNATFYEVESILKNLREFDLQVDNRKAEAEEAMKRLSYISQKVSDASDKTQQAERALGSAAADAQRAKNGAGEALEISSEIEQEIGSLNLEANVTADGALAMEKGLASLKSEMREVEGELERKELEFDTNMDAVQMVITEAQKVDTRAKNAGVTIQDTLNTLDGLLHLMDQPLSVDEEGLVLLEQKLSRAKTQINSQLRPMMSELEERARQQRGHLHLLETSIDGILADVKNLENIRDNLPPGCYNTQALEQQ
**Q.** B4 was tested. Which “Breast cancer/control (fold change)” value did it give?
**A.** −11.6 fold change

B5: Kelch-like protein 4 (protein, UniProt Q9C0H6 1-718, looked up)
Kelch-like protein 4: MSVSGKKEFDVKQILRLRWRWFSHPFQGSTNTGSCLQQEGYEHRGTPVQGRLKSHSRDRNGLKKSNSPVHHNILAPVPGPAPAHQRAVQNLQQHNLIVHFQANEDTPKSVPEKNLFKEACEKRAQDLEMMADDNIEDSTARLDTQHSEDMNATRSEEQFHVINHAEQTLRKMENYLKEKQLCDVLLIAGHLRIPAHRLVLSAVSDYFAAMFTNDVLEAKQEEVRMEGVDPNALNSLVQYAYTGVLQLKEDTIESLLAAACLLQLTQVIDVCSNFLIKQLHPSNCLGIRSFGDAQGCTELLNVAHKYTMEHFIEVIKNQEFLLLPANEISKLLCSDDINVPDEETIFHALMQWVGHDVQNRQGELGMLLSYIRLPLLPPQLLADLETSSMFTGDLECQKLLMEAMKYHLLPERRSMMQSPRTKPRKSTVGALYAVGGMDAMKGTTTIEKYDLRTNSWLHIGTMNGRRLQFGVAVIDNKLYVVGGRDGLKTLNTVECFNPVGKIWTVMPPMSTHRHGLGVATLEGPMYAVGGHDGWSYLNTVERWDPEGRQWNYVASMSTPRSTVGVVALNNKLYAIGGRDGSSCLKSMEYFDPHTNKWSLCAPMSKRRGGVGVATYNGFLYVVGGHDAPASNHCSRLSDCVERYDPKGDSWSTVAPLSVPRDAVAVCPLGDKLYVVGGYDGHTYLNTVESYDAQRNEWKEEVPVNIGRAGACVVVVKLP
modifications: oxidized
**Q.** For B5, which “Breast cancer/control (fold change)” value is on record?
**A.** −3.5 fold change

B6: Inter-alpha-trypsin inhibitor heavy chain H1 precursor (protein, UniProt P19827 35-672, looked up)
Inter-alpha-trypsin inhibitor …: SKSSEKRQAVDTAVDGVFIRSLKVNCKVTSRFAHYVVTSQVVNTANEAREVAFDLEIPKTAFISDFAVTADGNAFIGDIKDKVTAWKQYRKAAISGENAGLVRASGRTMEQFTIHLTVNPQSKVTFQLTYEEVLKRNHMQYEIVIKVKPKQLVHHFEIDVDIFEPQGISKLDAQASFLPKELAAQTIKKSFSGKKGHVLFRPTVSQQQSCPTCSTSLLNGHFKVTYDVSRDKICDLLVANNHFAHFFAPQNLTNMNKNVVFVIDISGSMRGQKVKQTKEALLKILGDMQPGDYFDLVLFGTRVQSWKGSLVQASEANLQAAQDFVRGFSLDEATNLNGGLLRGIEILNQVQESLPELSNHASILIMLTDGDPTEGVTDRSQILKNVRNAIRGRFPLYNLGFGHNVDFNFLEVMSMENNGRAQRIYEDHDATQQLQGFYSQVAKPLLVDVDLQYPQDAVLALTQNHHKQYYEGSEIVVAGRIADNKQSSFKADVQAHGEGQEFSITCLVDEEEMKKLLRERGHMLENHVERLWAYLTIQELLAKRMKVDREERANLSSQALQMSLDYGFVTPLTSMSIRGMADQDGLKPTIDKPSEDSPPLEMLGPRRTFVLSALQPSPTHSSSNTQRLPDRVTGVDTD
**Q.** Which “Breast cancer/control (fold change)” value does the source give for B6 here?
**A.** −6.3 fold change
